From article PMC8657633 come the findings set out here.

Protein sequences, listed by entry. Tags and fused reporters are not part of them. Lines headed by an entry give the natural chain unless they say otherwise; changes in a name come on top.
UniProt Q9LS25: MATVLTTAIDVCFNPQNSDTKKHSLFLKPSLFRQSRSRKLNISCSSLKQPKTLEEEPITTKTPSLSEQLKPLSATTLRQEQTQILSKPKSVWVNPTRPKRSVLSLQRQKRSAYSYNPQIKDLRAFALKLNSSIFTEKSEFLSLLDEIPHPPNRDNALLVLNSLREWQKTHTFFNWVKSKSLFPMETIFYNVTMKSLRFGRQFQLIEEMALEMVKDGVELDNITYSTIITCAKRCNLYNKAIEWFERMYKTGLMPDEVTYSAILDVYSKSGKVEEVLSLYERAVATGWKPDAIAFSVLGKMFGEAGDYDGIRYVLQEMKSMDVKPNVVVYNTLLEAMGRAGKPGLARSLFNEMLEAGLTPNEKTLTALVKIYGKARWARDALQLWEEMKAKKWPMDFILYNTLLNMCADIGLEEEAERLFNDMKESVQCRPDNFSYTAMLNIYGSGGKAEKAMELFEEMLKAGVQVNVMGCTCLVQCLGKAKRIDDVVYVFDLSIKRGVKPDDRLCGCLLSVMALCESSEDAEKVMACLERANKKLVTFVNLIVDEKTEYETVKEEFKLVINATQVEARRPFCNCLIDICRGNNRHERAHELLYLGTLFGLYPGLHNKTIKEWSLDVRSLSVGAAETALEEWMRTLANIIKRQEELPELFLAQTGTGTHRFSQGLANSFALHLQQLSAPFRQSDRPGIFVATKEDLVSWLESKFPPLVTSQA

The exact form of at least one protein or probe is not confirmed. For part of these data: Weaker means in comparison with the reference protein, sequence or condition of that experiment. For part of these data: At least one verdict was read from the data and is not stated in words by the source.

Common to all, as to assay: EMSA
Data set [1] relates to MBP-SOT1 + CAF2. The settings on record: CAF2 added in increasing amounts, 10 nM probe, enhances SOT1 binding; 10 mM HEPES pH 7.3, 20 mM KCl, 2 mM MgCl2, 1 mM DTT, 5% glycerol, RNA probe 1 nM (Methods) or 10 nM, 22 C, 30 min; 7% native PAGE; recombinant protein; protein details: MBP; label: 5' biotin.
Data set [2] deals with MBP-SOT1 + CAF1. Particulars: CAF1 added in increasing amounts, 10 nM probe, enhances SOT1 binding; 10 mM HEPES pH 7.3, 20 mM KCl, 2 mM MgCl2, 1 mM DTT, 5% glycerol, RNA probe 1 nM (Methods) or 10 nM, 22 C, 30 min; 7% native PAGE; recombinant protein; protein details: MBP; label: 5' biotin.
The target of data set [3] is MBP-SOT1 (Arabidopsis thaliana) (UniProt Q9LS25). Particulars: no CAF, affinity considerably lower than with CAF1 or CAF2; 10 mM HEPES pH 7.3, 20 mM KCl, 2 mM MgCl2, 1 mM DTT, 5% glycerol, RNA probe 1 nM (Methods) or 10 nM, 22 C, 30 min; 7% native PAGE; recombinant protein; protein details: MBP; label: 5' biotin.

Regarding “UGGCUGAUAUUA [ndhA 5' end 12-nt RNA (RNA 12)]”, the figures for the binding result in data set [1], in data set [2] and in data set [3] were “binds”, “binds” and “binds more weakly”, respectively.
